These results are taken from PubChem BioAssay AID256 (DTP/NCI, 2004).

The list is a part of this screen's results and no random one: it gathers tests that were run many times, whatever their T/C, doses with no T/C, and many T/C values between a quarter and a half above the control. Further doses and runs are listed elsewhere. T/C is the treated group as % of the vehicle group. Some entries give survivors of the animals treated and no T/C: the source files T/C as zero there, which appears to mark a toxic dose or a test without result, not a measured value. Some doses without a T/C left all or most animals alive at the check, yet need not have been tolerated: the source hardly ever lists a survival T/C far under the control, and the zero likely stands for such cases as well. Survivors were counted at the toxicity check, usually on the fifth day, unless a day is given; later deaths do not show. Schedule codes are those of the source, read here as Q, the interval in days (D) or hours (H), X, the number of doses. Some entries were tested several times; the values are given in rising order. Some schedules carry Z or #; the key to these is not given. Where survival is the endpoint, the PubChem record calls one and a half times the control and up active, and a quarter to a half above the control has no call in these data; cut-offs in other NCI protocols can differ. Counts like (3×) say how often a value occurs here. Some T/C values carry the count of animals alive at the toxicity check (mostly the fifth day); without a count, all were alive then.

This assay deals with CD2F1 mice, L1210 leukemia ip, survival T/C. Put plainly: NCI In Vivo Anticancer Drug Screen. Data for tumor model L1210 Leukemia (intraperitoneal) in CD2F1 (CDF1) mice. Conditions: higher T/C = longer survival. As for the experimental part: The antitumor activity of compounds was measured in mice bearing transplantable tumors. Survival or tumor size were measured and the results are expressed as the measurement made in the treated group (T) divided by the measurement made in the vehicle treated control group (C). The tumor model used in this assay is L1210 Leukemia (intraperitoneal) in CD2F1 (CDF1) mice

Setting [1] is: T/C endpoint: mean survival time, dose: 200.0 mg/kg/injection, schedule: Q04DX003 (ip), vehicle: saline with Tween-80.
[2] abbreviates: T/C endpoint: mean survival time, dose: 400.0 mg/kg/injection, schedule: Q04DX003 (ip), vehicle: saline with Tween-80.
The mark [3] stands for this setting: T/C endpoint: mean survival time, dose: 200.0 mg/kg/injection, schedule: Q01DX009 (ip), vehicle: saline with Tween-80.
[4] abbreviates: T/C endpoint: mean survival time, dose: 400.0 mg/kg/injection, schedule: Q01DX009 (ip), vehicle: saline with Tween-80.
The mark [5] stands for this setting: T/C endpoint: mean survival time, dose: 100.0 mg/kg/injection, schedule: Q04DX003 (ip), vehicle: saline with Tween-80.
[6] abbreviates: T/C endpoint: median survival time, dose: 125.0 mg/kg/injection, schedule: Q01DX001 (ip), vehicle: water.
The mark [7] stands for this setting: T/C endpoint: mean survival time, dose: 300.0 mg/kg/injection, schedule: Q01DX001 (ip), vehicle: saline.
Where [8] appears, read: T/C endpoint: mean survival time, dose: 5.0 mg/kg/injection, schedule: Q01DX009 (ip), vehicle: saline.

Turning to `O=S1Cc2ccccc2C1`, the survivor count reads like this: under setting [1], 5 of 6; under setting [2], 0 of 6.
Regarding `O=C(NC1=C(N2CC2)C(=O)C(NC(=O)OCCO)=C(N2CC2)C1=O)OCCO`, the T/C runs as follows: (T/C endpoint: mean survival time, dose: 1.5 mg/kg/injection, schedule: Q01DX009 (ip), vehicle: saline) 133 and 134 % of control; (T/C endpoint: mean survival time, dose: 3.0 mg/kg/injection, schedule: Q01DX009 (ip), vehicle: saline) 145 and 149 % of control; (T/C endpoint: mean survival time, dose: 6.0 mg/kg/injection, schedule: Q01DX009 (ip), vehicle: saline) 148 % of control (2×).
On to `CCOC(=O)Nc1cc(N(C)C)c(N)c(N)n1`, for which, under “T/C endpoint: mean survival time, dose: 400.0 mg/kg/injection, schedule: Q01DX001 (ip), vehicle: carboxymethylcellulose (CMC)”, the survivor count is given as 3 of 6.
Regarding `CCN(C(=O)Nc1ccc(OC)cc1)c1ccccc1`, under setting [2], the survivor count is recorded as 3 of 6.
Turning to `CN(C)N=Nc1c(F)cc(F)c(F)c1F`, under setting [3], the T/C is 125 % of control [5 of 6 alive]. Moreover, the survivor count under setting [4] is reported as 2 of 6.
`O=C(CCN1CCCCC1)c1ccccc1`: the survivor count under setting [5] was 0 of 6, the survivor count under setting [1] is recorded as 0 of 6 and the survivor count under setting [2] is 0 of 6.
In the case of `NCCCN=c1ccc2c3c1c(O)c1c(O)ccc(=O)c1c3[nH]n2CCNCCO`, the T/C reads like this: (T/C endpoint: median survival time, dose: 1.8 mg/kg/injection, schedule: Q01DX005 (iv), vehicle: saline) 131 % of control; (T/C endpoint: median survival time, dose: 2.0 mg/kg/injection, schedule: Q01DX009 (ip), vehicle: water) 143 % of control [5 of 6 alive]; (T/C endpoint: median survival time, dose: 2.2 mg/kg/injection, schedule: Q01DX001 (ip), vehicle: water) 125 and 137 % of control; (T/C endpoint: median survival time, dose: 4.5 mg/kg/injection, schedule: Q01DX001 (ip), vehicle: water) 136 % of control; (T/C endpoint: median survival time, dose: 9.0 mg/kg/injection, schedule: Q01DX001 (iv), vehicle: saline) 146 % of control; (T/C endpoint: median survival time, dose: 9.0 mg/kg/injection, schedule: Q01DX001 (iv), vehicle: water) 125 and 131 % of control. For the same molecule, the T/C (T/C endpoint: median survival time, dose: 18.0 mg/kg/injection, schedule: Q01DX001 (iv), vehicle: water) was 142 and 147 % of control; the T/C (T/C endpoint: median survival time, dose: 25.0 mg/kg/injection, schedule: Q01DX001 (ip), vehicle: water, evaluated on day 45) was 524 % of control (2×); the T/C (T/C endpoint: median survival time, dose: 25.0 mg/kg/injection, schedule: Q01DX001 (ip), vehicle: water, evaluated on day 60) was 345 % of control (2×); the T/C (T/C endpoint: median survival time, dose: 36.0 mg/kg/injection, schedule: Q01DX001 (iv), vehicle: water) is 148 % of control; the T/C (T/C endpoint: median survival time, dose: 37.0 mg/kg/injection, schedule: Q01DX001 (ip), vehicle: water, evaluated on day 45) was 219 % of control (2×); the T/C (T/C endpoint: median survival time, dose: 37.0 mg/kg/injection, schedule: Q01DX001 (ip), vehicle: water, evaluated on day 60) was 740 % of control (2×). Besides, the T/C is 548 % of control (2×) (T/C endpoint: median survival time, dose: 56.0 mg/kg/injection, schedule: Q01DX001 (ip), vehicle: water, evaluated on day 45); 740 % of control (2×) (T/C endpoint: median survival time, dose: 56.0 mg/kg/injection, schedule: Q01DX001 (ip), vehicle: water, evaluated on day 60); 126 % of control (T/C endpoint: median survival time, dose: 57.6 mg/kg/injection, schedule: Q01DX005 (ip), vehicle: saline); 548 % of control (2×) (T/C endpoint: median survival time, dose: 85.0 mg/kg/injection, schedule: Q01DX001 (ip), vehicle: water, evaluated on day 45); 740 % of control [8 of 10 alive] (2×) (T/C endpoint: median survival time, dose: 85.0 mg/kg/injection, schedule: Q01DX001 (ip), vehicle: water, evaluated on day 60); 740 % of control [8 of 10 alive] (2×) under setting [6]. For the same molecule, the survivor count is, setting by setting: (T/C endpoint: median survival time, dose: 14.4 mg/kg/injection, schedule: Q01DX005 (iv), vehicle: saline) 6 of 10; (T/C endpoint: median survival time, dose: 24.0 mg/kg/injection, schedule: Q03HX024 (ip), vehicle: saline) 6 of 10; (T/C endpoint: median survival time, dose: 36.0 mg/kg/injection, schedule: Q03HX008 (ip), vehicle: saline) 5 of 10; (T/C endpoint: median survival time, dose: 72.0 mg/kg/injection, schedule: Q01DX001 (iv), vehicle: saline) 3 of 10; (T/C endpoint: median survival time, dose: 72.0 mg/kg/injection, schedule: Q01DX001 (iv), vehicle: water) 0 of 10; under setting [6], 2 of 10. Moreover, the survivor count runs as follows: (T/C endpoint: median survival time, dose: 144.0 mg/kg/injection, schedule: Q01DX001 (ip), vehicle: water) 2 of 10; (T/C endpoint: median survival time, dose: 256.0 mg/kg/injection, schedule: Q01DX009 (oral), vehicle: saline) 6 of 10.
On to `Cc1c(NC(=O)Nc2ccc(C3=NCCCN3)cc2)cccc1NC(=O)Nc1ccc(C2=NCCCN2)cc1`, for which, under “T/C endpoint: mean survival time, dose: 62.0 mg/kg/injection, schedule: Q01DX Z (ip), vehicle: water”, the survivor count is listed as 0 of 6.
Turning to `O=C(O)c1cccs1`, the survivor count (T/C endpoint: mean survival time, dose: 400.0 mg/kg/injection, schedule: Q04DX003 (ip), vehicle: other) was 3 of 6.
With `CCOC(=O)CS(=O)c1c([N+](=O)[O-])ncn1C` (stereo unspecified), the survivor count is recorded as 2 of 6 under setting [5], 0 of 6 under setting [1] and 0 of 6 under setting [2].
As to `C[n+]1c(-c2cccc(-c3ccccc3)c2)c2cc([N+](=O)[O-])ccc2c2ccccc21`, the survivor count (T/C endpoint: mean survival time, dose: 50.0 mg/kg/injection, schedule: Q01DX009 (ip), vehicle: water) is given as 6 of 6; the survivor count (T/C endpoint: mean survival time, dose: 100.0 mg/kg/injection, schedule: Q01DX009 (ip), vehicle: water) is reported as 4 of 6; the survivor count (T/C endpoint: mean survival time, dose: 200.0 mg/kg/injection, schedule: Q01DX009 (ip), vehicle: water) is recorded as 1 of 6; the survivor count (T/C endpoint: mean survival time, dose: 400.0 mg/kg/injection, schedule: Q01DX009 (ip), vehicle: water) was 0 of 6.
`CN1CCC(CN2c3ccccc3Sc3ccccc32)C1` (stereo unspecified): the T/C (T/C endpoint: mean survival time, dose: 50.0 mg/kg/injection, schedule: Q01DX009 (ip), vehicle: saline with Tween-80) was 133 % of control. The survivor count is 0 of 3 and 1 of 6 (T/C endpoint: mean survival time, dose: 100.0 mg/kg/injection, schedule: Q01DX009 (ip), vehicle: saline with Tween-80); 0 of 3 under setting [3].
With `O=C1C=C(Nc2ccc([N+](=O)[O-])cc2)c2ccccc2C1=O`, the survivor count under setting [7] is 3 of 6.
Consider `CCCCOCN(COCCCC)C12CC3CC(CC(C3)C1)C2`, for which, under setting [4], the survivor count was 0 of 6 and 2 of 10.
Consider `O=C(O)C(O)C(O)C(=O)O` (stereo unspecified), for which the survivor count under setting [4] was 0 of 6.
As to `N=C(N)N1CCc2ccccc2C1`, the survivor count was 1 of 6 (T/C endpoint: mean survival time, dose: 150.0 mg/kg/injection, schedule: Q01DX001 (ip), vehicle: saline) and 0 of 6 under setting [7].
Turning to `c1ccc2nc3ccccc3cc2c1`, the survivor count under setting [4] is recorded as 4 of 6.
Consider `CC1(C)OCC(CO)(Nc2nc(N3CC3)nc(N3CC3)n2)CO1`, for which the T/C is 132 % of control (T/C endpoint: mean survival time, dose: 0.62 mg/kg/injection, schedule: Q01DX009 (ip), vehicle: saline); 131 and 137 % of control (T/C endpoint: mean survival time, dose: 1.25 mg/kg/injection, schedule: Q01DX009 (ip), vehicle: saline); 143, 158, 247 % of control under setting [8]. Further, the survivor count runs as follows: under setting [8], 6 of 6; (T/C endpoint: mean survival time, dose: 10.0 mg/kg/injection, schedule: Q01DX009 (ip), vehicle: saline) 10 of 10 and 6 of 6; (T/C endpoint: mean survival time, dose: 20.0 mg/kg/injection, schedule: Q01DX009 (ip), vehicle: saline) 7 of 10; (T/C endpoint: mean survival time, dose: 40.0 mg/kg/injection, schedule: Q01DX009 (ip), vehicle: saline) 3 of 10.
Regarding `O=C(NNC1CCCCC1)c1ccccc1`, the survivor count by setting is: (T/C endpoint: mean survival time, dose: 200.0 mg/kg/injection, schedule: Q01DX009 (ip), vehicle: acetone) 1 of 6; (T/C endpoint: mean survival time, dose: 400.0 mg/kg/injection, schedule: Q01DX009 (ip), vehicle: acetone) 0 of 6.
With `O=C(O)C(Br)CC(Br)C(=O)O` (stereo unspecified), the survivor count (T/C endpoint: mean survival time, dose: 200.0 mg/kg/injection, schedule: Q01DX009 (ip), vehicle: saline) is recorded as 1 of 3.
